Source: the supplement of paper PMC11006884
This is a selection; strong and weak results do not stand in their true shares.

Amino acid sequences for entries named in this document (tags omitted). A change or cut given only in a name is not applied to a line headed by its entry.
UniProt P18669: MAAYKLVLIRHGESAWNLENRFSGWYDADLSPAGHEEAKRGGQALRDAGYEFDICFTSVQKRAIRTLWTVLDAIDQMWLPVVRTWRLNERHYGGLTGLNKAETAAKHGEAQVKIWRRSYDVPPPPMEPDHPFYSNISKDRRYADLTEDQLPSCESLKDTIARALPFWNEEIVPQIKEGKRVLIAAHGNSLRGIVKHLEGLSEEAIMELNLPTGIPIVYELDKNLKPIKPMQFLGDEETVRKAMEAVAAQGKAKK
UniProt P18085: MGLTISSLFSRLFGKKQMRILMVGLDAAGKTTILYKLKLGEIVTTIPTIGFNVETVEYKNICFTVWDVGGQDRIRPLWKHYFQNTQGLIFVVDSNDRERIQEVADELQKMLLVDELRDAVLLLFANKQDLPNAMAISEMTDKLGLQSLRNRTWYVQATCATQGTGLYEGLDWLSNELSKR
UniProt P26640: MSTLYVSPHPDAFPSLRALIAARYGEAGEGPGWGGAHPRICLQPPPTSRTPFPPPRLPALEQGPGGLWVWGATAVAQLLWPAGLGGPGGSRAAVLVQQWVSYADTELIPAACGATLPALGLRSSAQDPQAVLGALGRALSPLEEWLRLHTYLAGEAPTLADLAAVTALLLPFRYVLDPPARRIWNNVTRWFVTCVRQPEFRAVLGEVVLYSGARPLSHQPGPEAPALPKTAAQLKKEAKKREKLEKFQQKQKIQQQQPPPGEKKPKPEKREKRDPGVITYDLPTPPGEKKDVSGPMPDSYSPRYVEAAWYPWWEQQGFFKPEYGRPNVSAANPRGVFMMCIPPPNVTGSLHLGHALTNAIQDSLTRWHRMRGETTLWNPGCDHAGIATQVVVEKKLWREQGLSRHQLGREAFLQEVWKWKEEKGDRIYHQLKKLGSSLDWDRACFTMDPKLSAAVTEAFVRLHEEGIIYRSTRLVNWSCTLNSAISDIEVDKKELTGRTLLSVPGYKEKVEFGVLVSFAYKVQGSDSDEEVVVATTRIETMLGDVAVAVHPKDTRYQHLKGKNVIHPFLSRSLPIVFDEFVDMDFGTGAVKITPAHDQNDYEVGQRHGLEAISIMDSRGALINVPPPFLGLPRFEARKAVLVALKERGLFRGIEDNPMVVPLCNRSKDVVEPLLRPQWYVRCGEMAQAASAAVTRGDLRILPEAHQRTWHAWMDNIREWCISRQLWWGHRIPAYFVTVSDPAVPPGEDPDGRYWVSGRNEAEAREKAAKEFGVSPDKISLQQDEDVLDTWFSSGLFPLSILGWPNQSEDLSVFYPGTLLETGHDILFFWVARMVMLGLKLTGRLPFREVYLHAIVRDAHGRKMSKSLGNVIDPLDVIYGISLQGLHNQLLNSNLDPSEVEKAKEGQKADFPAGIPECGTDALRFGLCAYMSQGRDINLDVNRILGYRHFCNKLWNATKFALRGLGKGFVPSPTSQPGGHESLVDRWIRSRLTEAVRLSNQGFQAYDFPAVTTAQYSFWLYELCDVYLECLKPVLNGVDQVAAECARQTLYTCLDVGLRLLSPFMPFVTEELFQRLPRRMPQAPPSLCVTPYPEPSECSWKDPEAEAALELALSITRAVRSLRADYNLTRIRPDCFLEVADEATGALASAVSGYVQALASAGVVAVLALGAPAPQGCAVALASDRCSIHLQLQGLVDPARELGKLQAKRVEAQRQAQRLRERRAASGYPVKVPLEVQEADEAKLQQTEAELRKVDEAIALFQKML
UniProt P29401: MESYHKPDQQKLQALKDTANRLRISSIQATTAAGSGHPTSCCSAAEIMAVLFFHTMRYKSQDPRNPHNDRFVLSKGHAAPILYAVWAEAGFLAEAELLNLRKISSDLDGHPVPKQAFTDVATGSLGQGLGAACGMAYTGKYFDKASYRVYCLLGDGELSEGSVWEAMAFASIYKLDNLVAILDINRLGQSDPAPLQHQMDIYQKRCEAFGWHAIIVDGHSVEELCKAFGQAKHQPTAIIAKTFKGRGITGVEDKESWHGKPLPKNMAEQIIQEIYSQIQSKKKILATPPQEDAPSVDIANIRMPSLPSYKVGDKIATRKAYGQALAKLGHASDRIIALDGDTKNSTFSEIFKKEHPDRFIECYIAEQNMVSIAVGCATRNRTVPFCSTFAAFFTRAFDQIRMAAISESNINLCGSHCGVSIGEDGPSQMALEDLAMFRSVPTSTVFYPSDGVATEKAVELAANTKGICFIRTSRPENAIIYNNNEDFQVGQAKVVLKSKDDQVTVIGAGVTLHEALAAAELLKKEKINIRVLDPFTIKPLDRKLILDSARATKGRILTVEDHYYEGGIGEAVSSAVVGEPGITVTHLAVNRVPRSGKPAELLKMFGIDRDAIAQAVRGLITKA
UniProt P18887, whole entry: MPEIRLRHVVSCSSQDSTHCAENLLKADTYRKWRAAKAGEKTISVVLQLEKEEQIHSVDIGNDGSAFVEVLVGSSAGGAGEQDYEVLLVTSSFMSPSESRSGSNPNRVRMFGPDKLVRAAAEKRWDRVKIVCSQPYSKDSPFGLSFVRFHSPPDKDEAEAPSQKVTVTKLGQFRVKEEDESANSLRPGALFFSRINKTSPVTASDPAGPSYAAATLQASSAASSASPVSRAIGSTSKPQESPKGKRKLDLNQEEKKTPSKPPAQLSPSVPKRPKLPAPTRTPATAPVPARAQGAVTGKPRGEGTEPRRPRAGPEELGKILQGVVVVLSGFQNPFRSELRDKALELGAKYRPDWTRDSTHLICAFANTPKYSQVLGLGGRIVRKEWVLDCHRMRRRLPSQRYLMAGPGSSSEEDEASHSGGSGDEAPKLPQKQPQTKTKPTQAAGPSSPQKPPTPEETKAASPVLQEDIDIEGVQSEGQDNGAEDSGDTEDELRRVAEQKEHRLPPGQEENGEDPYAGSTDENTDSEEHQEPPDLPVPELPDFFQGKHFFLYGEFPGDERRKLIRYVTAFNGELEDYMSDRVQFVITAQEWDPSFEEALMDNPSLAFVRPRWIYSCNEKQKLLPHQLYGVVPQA
UniProt P24752: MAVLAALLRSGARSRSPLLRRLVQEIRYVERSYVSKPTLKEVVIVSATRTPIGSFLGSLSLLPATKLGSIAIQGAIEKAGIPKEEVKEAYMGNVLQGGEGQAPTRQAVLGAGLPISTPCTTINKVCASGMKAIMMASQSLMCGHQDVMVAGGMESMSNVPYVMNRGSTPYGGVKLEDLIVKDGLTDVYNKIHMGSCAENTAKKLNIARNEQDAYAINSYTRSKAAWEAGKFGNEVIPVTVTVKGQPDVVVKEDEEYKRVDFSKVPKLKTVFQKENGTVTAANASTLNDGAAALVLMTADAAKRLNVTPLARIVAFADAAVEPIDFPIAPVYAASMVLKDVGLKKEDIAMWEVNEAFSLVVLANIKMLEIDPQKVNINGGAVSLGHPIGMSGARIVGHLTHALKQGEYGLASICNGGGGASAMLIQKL
UniProt P25789: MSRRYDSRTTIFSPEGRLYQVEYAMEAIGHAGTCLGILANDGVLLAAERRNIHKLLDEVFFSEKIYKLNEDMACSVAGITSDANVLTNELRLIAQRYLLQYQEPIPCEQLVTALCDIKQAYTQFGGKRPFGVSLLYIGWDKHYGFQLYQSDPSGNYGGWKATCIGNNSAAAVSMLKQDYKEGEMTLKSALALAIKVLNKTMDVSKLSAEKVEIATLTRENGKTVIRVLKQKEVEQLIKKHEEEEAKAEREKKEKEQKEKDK
UniProt P23381: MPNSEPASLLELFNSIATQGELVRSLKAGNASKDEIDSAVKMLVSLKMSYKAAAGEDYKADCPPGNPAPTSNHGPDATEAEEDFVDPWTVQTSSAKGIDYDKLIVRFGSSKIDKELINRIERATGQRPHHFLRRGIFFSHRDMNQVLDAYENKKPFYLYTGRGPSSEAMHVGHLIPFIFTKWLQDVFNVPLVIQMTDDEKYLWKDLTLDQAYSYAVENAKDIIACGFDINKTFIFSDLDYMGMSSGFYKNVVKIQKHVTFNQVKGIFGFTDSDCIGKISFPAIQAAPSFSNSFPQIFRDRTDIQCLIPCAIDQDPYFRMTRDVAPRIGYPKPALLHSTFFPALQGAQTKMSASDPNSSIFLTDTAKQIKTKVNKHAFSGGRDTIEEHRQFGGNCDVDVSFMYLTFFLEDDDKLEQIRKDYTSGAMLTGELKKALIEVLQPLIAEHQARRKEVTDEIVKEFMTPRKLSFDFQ
UniProt P28482, whole entry, looked up: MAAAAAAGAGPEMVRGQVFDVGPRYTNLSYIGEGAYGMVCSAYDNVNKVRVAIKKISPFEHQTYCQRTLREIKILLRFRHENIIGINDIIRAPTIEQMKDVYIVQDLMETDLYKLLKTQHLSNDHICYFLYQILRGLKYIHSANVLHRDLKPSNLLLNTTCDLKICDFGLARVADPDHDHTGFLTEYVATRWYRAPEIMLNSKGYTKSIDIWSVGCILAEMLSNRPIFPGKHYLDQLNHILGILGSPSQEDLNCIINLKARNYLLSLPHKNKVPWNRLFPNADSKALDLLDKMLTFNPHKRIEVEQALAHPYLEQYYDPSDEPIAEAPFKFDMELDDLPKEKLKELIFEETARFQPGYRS
UniProt P27695, whole entry, looked up: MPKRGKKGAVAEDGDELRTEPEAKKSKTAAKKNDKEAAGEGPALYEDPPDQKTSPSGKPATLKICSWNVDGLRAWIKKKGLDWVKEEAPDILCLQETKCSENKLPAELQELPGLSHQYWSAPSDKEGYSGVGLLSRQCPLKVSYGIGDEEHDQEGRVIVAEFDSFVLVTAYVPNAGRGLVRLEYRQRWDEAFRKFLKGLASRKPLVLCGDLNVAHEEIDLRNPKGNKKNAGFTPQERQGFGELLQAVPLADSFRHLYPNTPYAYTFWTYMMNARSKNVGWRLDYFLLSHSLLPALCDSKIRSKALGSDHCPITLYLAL
UniProt P27540, whole entry: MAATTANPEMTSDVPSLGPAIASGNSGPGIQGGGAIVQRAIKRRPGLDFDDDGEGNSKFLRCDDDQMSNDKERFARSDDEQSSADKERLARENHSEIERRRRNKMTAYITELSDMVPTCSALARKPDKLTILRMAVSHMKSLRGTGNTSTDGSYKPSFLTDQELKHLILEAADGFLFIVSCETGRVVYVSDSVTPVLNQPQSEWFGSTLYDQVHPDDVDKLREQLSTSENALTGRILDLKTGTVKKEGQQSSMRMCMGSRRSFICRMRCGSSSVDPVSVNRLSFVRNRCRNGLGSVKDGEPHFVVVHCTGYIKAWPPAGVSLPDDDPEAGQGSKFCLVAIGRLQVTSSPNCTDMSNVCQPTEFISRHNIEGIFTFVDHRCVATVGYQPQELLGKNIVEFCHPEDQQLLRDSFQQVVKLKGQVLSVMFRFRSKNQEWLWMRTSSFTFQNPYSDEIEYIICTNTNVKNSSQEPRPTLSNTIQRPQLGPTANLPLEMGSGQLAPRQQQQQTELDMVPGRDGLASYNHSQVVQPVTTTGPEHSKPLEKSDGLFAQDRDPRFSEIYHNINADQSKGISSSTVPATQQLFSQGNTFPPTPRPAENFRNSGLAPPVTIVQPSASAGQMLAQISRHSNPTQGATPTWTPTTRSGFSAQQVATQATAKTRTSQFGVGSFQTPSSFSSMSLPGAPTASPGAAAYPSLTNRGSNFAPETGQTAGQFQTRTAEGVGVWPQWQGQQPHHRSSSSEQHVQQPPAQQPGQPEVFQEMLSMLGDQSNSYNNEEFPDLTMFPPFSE
UniProt P22102: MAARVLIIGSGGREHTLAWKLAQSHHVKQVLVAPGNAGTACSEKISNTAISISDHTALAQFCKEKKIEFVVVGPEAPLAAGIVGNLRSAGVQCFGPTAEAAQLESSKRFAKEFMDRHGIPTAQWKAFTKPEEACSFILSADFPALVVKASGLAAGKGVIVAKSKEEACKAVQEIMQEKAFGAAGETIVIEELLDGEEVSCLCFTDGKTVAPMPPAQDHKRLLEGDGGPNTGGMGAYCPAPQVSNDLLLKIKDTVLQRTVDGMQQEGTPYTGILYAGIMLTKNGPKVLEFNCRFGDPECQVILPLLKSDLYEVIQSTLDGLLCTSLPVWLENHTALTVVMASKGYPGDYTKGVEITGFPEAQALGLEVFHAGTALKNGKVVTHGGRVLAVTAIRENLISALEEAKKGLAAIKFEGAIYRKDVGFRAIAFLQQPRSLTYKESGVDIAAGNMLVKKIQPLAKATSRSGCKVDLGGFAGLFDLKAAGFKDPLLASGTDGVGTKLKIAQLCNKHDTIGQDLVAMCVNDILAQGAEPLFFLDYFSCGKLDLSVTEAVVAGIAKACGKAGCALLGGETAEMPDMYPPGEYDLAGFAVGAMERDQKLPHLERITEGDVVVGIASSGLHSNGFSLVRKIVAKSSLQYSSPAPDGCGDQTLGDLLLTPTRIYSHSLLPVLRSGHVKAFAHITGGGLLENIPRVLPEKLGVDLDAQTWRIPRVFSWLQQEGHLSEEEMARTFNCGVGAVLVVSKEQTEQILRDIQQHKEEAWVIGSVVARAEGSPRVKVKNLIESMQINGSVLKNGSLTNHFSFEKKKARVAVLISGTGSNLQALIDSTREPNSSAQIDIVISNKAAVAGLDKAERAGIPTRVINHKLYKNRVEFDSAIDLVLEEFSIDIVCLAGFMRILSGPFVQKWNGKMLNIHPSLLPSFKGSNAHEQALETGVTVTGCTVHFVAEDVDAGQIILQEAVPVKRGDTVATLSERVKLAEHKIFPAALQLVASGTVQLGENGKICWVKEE

Compound: COC(=O)C#Cc1ccccc1 [methyl 3-phenylpropiolate]
Assay: log2 ratio of iodoacetamide-alkyne labeling of the cysteine site, DMSO over compound (competition); higher = stronger covalent engagement of the cysteine by the compound, active = 1 or more
Conditions: 500 µM; treatment time 1 h; system: HEK293T cell lysate
How it was run: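 HEK293T lysate (2 mg/mL) was treated with DMSO or electrophile (500 µM, 1 h, ambient temperature), then iodoacetamide alkyne (1 h), clicked to sCIP-TMT reagents, pooled, trypsin-digested overnight at 37 °C, streptavidin-enriched and acid-eluted. Peptides were run on Orbitrap Eclipse LC-MS/MS with FAIMS and quantified in FragPipe. The log2 competition ratio per cysteine is mean control-channel over mean compound-channel reporter intensity. Duplicate channels and three replicates were used, and cysteines quantified in only one replicate were excluded.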

log2 ratio of iodoacetamide-alkyne labeling, inactive:
PGAM1 C153 (UniProt P18669) 0.299
ARF4 C62 (UniProt P18085) -0.015
RPL17 C144 (UniProt P18621) 0.131
VARS C112 (UniProt P26640) 0.0679
TKT C42 (UniProt P29401) 0.965
XRCC1 C362 (UniProt P18887) 0.725
ACAT1 C196 (UniProt P24752) 0.19
VARS C41 (UniProt P26640) 0.235
ACAT1 C126 (UniProt P24752) 0.42
PSMA4 C163 (UniProt P25789) 0.263
RPL10 C105 (UniProt P27635) 0.809
MSH3 C166 (UniProt P20585) 0.296
RPL10 C49 (UniProt P27635) 0.507
APC C1387 (UniProt P25054) 0.256
WARS C62 (UniProt P23381) -0.0517
VARS C663 (UniProt P26640) 0.338
TCP1 C296 (UniProt P17987) 0.00301
FLNA C1402 (UniProt P21333) 0.0938
RPL12 C141 (UniProt P30050) 0.1
UniProt P25398_C106 -0.0453
MCM3 C148 (UniProt P25205) 0.548
EEF1B2 C50 (UniProt P24534) -0.0507
COMT C145 (UniProt P21964) 0.0366
UniProt P28482_C166 0.126
APC C1502 (UniProt P25054) 0.187
PSMA1 C148 (UniProt P25786) 0.0454
FLNA C53 (UniProt P21333) 0.133
RPS3 C119 (UniProt P23396) -0.136
CAST C241 (UniProt P20810) 0.334
DNAJB1 C267 (UniProt P25685) 0.268
APEX1 C65 (UniProt P27695) 0.045
LAP3 C376 (UniProt P28838) -0.0517
CAST C413 (UniProt P20810) 0.756
TCEA1 C271 (UniProt P23193) -0.116
ARNT C380 (UniProt P27540) 0.324
GART C466 (UniProt P22102) 0.199
PML C338 (UniProt P29590) 0.413

Reprinted from above (two entries):
log2 ratio of iodoacetamide-alkyne labeling, inactive:
ARF4 C62 (UniProt P18085) -0.015
RPL17 C144 (UniProt P18621) 0.131
